## Percent effect of library compounds

Chains of the proteins cited; added tags and fusions are not shown. Residues count along the entry.
UniProt P9WNZ1, whole entry: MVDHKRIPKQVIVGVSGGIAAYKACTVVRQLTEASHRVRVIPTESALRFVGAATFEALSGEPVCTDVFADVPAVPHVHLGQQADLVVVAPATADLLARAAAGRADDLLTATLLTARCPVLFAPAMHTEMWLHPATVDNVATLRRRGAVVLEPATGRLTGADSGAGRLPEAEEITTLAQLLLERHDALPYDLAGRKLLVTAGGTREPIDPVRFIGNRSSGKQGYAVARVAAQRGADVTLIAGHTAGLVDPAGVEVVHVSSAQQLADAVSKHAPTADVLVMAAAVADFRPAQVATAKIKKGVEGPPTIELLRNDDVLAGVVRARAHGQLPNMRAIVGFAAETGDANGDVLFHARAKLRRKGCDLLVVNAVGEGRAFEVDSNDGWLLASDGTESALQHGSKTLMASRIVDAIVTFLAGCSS
UniProt I6X8D2, whole entry: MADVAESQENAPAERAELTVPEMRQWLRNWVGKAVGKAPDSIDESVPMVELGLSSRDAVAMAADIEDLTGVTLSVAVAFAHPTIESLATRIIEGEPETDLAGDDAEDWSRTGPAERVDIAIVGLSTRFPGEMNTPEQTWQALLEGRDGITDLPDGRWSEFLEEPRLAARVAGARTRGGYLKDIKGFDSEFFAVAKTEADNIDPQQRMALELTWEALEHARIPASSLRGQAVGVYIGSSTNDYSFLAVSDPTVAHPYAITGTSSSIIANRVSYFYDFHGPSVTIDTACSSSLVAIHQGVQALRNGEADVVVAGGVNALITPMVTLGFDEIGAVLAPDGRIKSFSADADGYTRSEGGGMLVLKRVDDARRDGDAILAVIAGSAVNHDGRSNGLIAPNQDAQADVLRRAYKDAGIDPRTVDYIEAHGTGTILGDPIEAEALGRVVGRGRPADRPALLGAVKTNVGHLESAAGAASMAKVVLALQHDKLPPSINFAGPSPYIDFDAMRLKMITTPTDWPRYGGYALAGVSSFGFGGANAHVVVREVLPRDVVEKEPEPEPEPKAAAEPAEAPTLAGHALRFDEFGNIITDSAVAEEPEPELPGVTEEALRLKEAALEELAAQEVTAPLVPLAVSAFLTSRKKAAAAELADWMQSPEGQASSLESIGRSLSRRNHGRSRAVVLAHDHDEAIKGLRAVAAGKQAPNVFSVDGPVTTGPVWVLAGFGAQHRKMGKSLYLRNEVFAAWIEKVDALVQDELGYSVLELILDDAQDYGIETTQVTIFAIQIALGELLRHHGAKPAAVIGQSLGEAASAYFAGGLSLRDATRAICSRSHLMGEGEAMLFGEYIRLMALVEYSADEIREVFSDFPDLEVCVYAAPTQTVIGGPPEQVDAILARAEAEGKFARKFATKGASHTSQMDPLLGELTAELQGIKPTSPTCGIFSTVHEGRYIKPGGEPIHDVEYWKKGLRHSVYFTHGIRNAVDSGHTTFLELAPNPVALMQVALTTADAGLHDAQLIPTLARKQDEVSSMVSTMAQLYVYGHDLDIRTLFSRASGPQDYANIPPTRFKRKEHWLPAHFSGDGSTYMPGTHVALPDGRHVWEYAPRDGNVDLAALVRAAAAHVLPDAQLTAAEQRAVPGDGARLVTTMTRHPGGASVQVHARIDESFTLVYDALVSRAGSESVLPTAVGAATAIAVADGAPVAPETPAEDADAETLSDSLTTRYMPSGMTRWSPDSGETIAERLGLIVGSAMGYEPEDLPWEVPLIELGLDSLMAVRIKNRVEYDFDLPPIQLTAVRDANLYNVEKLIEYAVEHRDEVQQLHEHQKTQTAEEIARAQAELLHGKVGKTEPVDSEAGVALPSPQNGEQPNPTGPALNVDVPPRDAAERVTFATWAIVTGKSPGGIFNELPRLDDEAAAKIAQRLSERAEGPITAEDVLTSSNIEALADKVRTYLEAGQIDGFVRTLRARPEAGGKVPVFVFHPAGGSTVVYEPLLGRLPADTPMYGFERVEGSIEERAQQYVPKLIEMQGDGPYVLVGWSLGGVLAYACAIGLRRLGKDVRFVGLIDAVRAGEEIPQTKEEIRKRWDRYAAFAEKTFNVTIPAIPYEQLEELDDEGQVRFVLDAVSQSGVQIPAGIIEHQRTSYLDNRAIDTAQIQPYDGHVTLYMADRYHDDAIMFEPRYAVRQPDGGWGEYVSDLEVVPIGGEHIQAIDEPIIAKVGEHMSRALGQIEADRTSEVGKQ
UniProt P9WPC5, whole entry: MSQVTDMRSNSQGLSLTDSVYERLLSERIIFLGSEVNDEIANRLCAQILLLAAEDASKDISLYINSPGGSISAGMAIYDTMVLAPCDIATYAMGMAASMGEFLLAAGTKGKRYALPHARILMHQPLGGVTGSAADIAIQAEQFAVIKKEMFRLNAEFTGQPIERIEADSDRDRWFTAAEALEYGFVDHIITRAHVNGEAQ
UniProt P9WPC3, whole entry partner: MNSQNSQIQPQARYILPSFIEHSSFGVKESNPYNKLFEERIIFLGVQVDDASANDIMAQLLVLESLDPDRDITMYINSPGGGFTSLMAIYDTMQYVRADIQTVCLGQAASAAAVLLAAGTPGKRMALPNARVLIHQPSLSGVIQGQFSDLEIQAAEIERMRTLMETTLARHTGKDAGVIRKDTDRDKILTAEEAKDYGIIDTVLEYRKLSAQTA
UniProt Q4DA54, 1-478: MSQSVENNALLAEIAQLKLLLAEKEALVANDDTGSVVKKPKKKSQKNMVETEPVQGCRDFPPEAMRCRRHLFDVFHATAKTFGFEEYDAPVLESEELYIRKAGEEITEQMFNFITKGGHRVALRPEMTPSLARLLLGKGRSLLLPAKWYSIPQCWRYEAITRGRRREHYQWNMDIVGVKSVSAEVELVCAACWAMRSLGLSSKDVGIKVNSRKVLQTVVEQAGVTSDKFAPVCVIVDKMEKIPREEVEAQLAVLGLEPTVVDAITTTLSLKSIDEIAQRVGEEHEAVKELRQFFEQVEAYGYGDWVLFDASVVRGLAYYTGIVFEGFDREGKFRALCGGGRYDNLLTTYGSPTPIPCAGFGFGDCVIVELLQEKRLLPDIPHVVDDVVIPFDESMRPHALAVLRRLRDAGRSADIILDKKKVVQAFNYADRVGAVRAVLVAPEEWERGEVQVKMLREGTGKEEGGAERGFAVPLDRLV

The values are deposited in ChEMBL (CHEMBL3988442, “University of Dundee, Small-Polar-MMV Screening Library” (2021)).

CoaBC: 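Coenzyme A biosynthesis protein CoaBC, Mycobacterium tuberculosis (UniProt P9WNZ1). Enzyme assay of CoaBC with a phosphate dye (Biomol Green) read at 650 nm. Tested at 30 µM. Higher reads as stronger inhibition, judged from the few compounds that gave an IC50. Most strong results did not repeat in a second test. Size under these conditions: about 67,000 compounds, about 40 of them at 50% or above in at least one test.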
Leishmania in macrophages: 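Cell assay of Leishmania donovani living inside macrophages; the read-out is not stated. Concentration: 30 µM. Direction is inferred from retests: higher values go with stronger inhibition. Of about 69,000 compounds tested this way, about 1,000 (1.5%) reached 50% or more in at least one test.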
Pks13 thioesterase: 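Enzyme assay of the thioesterase domain of polyketide synthase 13; the read-out is not stated. Target: Polyketide synthase Pks13, Mycobacterium tuberculosis (UniProt I6X8D2). Tested at 30 µM. The record gives no direction; the compounds picked for IC50 retests had high values, so higher reads as stronger inhibition. Size under these conditions: about 67,000 compounds, about 300 of them at 50% or above in at least one test.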
ClpP1P2: 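ClpP1P2, Mycobacterium tuberculosis (UniProt P9WPC5 and UniProt P9WPC3). Protease assay of ClpP1P2, read by the AMC dye that it sets free. Tested at 50 µM. Higher reads as stronger inhibition, judged from the few compounds that gave an IC50. Most other retested compounds had strongly negative values. Size under these conditions: about 69,000 compounds, about 10 of them at 50% or above in at least one test.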
TcHisRS: 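Enzyme assay of histidyl-tRNA synthetase; the read-out is not stated. Target: Histidine-tRNA ligase, Trypanosoma cruzi CL Brener (UniProt Q4DA54). Tested at 30 µM. Higher reads as stronger inhibition (inferred: compounds with an IC50 in retests scored well above the rest). Size under these conditions: about 69,000 compounds, about 31 of them at 50% or above in at least one test.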

Values are the deposited “Percent Effect”, in %.
The controls that fix the scale are not given in the record; negative values are as filed.
This is an unselected part of the compounds tested.
Two or more numbers in one place are separate tests of the same structure; such repeats can differ widely.
A dash means the value is not listed here; it may have been measured.

compound,CoaBC,Leishmania in macrophages,Pks13 thioesterase,ClpP1P2,TcHisRS
Cc1ccc(C2CN(CCS(=O)(=O)C(C)C)CCO2)c(C)c1 (centres unmarked),0.4603%,5.962%,-8.65%,-19.26%,-1.042%
CCc1ccc(C(=O)NCc2ccnc(C)n2)cc1,5.578%,8.761%,-7.337%,3.767%,7.368%
CCOCCCNC(=O)c1cn(C(C)(C)C)c2ncccc12,0.7282%,-7.57%,60.18%,-4.08%,4.545%
NC1(CNC(=O)c2cc3ccccc3[nH]2)CCCC1,-1.942%,11%,-27.51%,-7.337%,-3.409%
COC(=O)C(C)(C)NC(=O)C1CC(=O)N(C)C1 (centres unmarked),0.6452%,17.33%,-21.05%,-9.9%,-1.653%
Cn1nnc2c1C(COCC1CC1)CN(Cc1ccoc1)C2 (centres unmarked),5.882%,-,-0.5579%,-7.649%,7.438%
COc1ccc(C(=O)C2CCCN(Cc3ccncc3)C2)c(OC)c1 (centres unmarked),10.53%,21.78%,-,-12.6%,0.8264%
CC(C#N)CN(C)Cc1nc2c(cnn2C)c(=O)[nH]1 (centres unmarked),2.105%,12%,-17.81%,-13.81%,8.504%
O=C(C1CCC2(CCN(c3nncs3)CC2)C1)N1CCCC1 (centres unmarked),-8.35%,15.01%,12.43%,0.1822%,6.897%
CCN1C[C@H]2CCN(C(=O)NC)CC[C@H]2S1(=O)=O,8.02%,-,12.43%,-5.635%,0%
COCCN1C[C@H]2CC[C@@H]1CN(Cc1nc3ccccc3n1C)C2,-7.592%,-,-34.6%,2.217%,8.511%
CC(NC(=O)N1CCNC(=O)CC1)c1ccc(OC(F)F)cc1 (centres unmarked),-0.6329%,37.7%,-4.726%,-9.822%,6.211%
Cc1cc(N2CCCN(C(=O)Cc3csc(C)n3)CC2)ccn1,-3.625%,15.17%,-11.4%,-9.763%,6.667%
CN1CCN(c2ncc3c(c2C(=O)O)CCN(C2CCOC2)C3)CC1 (centres unmarked),-,-,-18.69%,3.605%,6.329%
CN(C)c1ccnc(C2CCCN2)n1 (centres unmarked),6.412%,-,-396.1%,-10.4%,6.061%
[H][C@]12CN(c3ncc(C)cn3)C[C@@]1([H])S(=O)(=O)CC[C@@H]2C(=O)NC(C)C,-,-16.51%,-,-,-
Cn1cc(CN2CC3(CCN(C(=O)c4ccoc4)C3)C2)cn1,-0.6452%,-0.5683%,-7.362%,-8.034%,4.959%
Cc1ncn(CCNC(=O)Nc2ccc(F)c(Cl)c2)c(=O)c1C,4.97%,0.8424%,-19.76%,2.594%,0.5291%
Cc1cc(C(=O)NCc2cccn2C)nn1C,5.063%,-4.892%,-27.53%,9.166%,5.208%
CCC(C)(NCC(=O)OC)c1nccs1 (centres unmarked),4.989%,-8.752%,-5.315%,0.02136%,2.128%
Cc1nc(C(=O)N2CCC3(CC2)CC(=O)N(CC2CCCO2)C3)cs1 (centres unmarked),-4.069%,4.478%,-26.19%,10.03%,4.545%
[H][C@@]12C[C@@H](C)O[C@]1([H])CN(C(=O)C1=CCCC1)C2,-,-8.214%,-,-,-
COC[C@@]12CCO[C@@H]1CCN(Cc1ccccc1F)C2,10.97%,-,-17.08%,-1.054%,-13.22%
CNc1snc(C)c1C(=O)N1CCCC(n2cc(C)cn2)C1 (centres unmarked),2.089%,9.353%,-12.96%,0.8486%,1.695%
CNC(=O)c1ccc2c(c1)C1(CCN(CC(C)C)CC1)C(=O)N2,-3.084%,-,-17.95%,4.627%,4.237%
Cc1ccsc1[C@@H]1CCN(C(=O)Cn2cc3ccccc3n2)C[C@H]1O,5.383%,-10.71%,-24.19%,0.2171%,8.911%
c1coc(-c2nnc(CN3CCOC(Cn4cccn4)C3)o2)c1 (centres unmarked),3.342%,17.54%,-30.76%,7.551%,0%
Cc1nccn1CCCC(=O)Nc1nc(C(C)C)nn1C,-14.31%,-22.47%,-2.213%,6.755%,1.087%
CC(=O)N1[C@H](Cn2cncn2)C[C@@H]2CN(Cc3ccccn3)CC[C@@H]21,-7.742%,-,31.52%,-7.745%,6.468%
COc1cc(CNC2CCCN(c3ncccn3)C2)cc2c1OCO2 (centres unmarked),1.238%,34.66%,-10.6%,-1.255%,12.05%
Cc1cc2c(N)nc(=O)n(CC(=O)Nc3cccc(Cl)c3)c2s1,0.8475%,52.64%,11.86%,-20.22%,-0.9901%
O=C(NC1CC1)[C@@H]1CCO[C@@H]2CCN(CCc3ccccc3)C[C@@H]21,4.084%,-,-30.43%,-12.48%,-3%
O=C(O)C(F)(F)F.[H][C@]12CCN(S(=O)(=O)CC(C)C)CC[C@@]1([H])S(=O)(=O)CCN2CC(C)C,-,1.481% & 15.1%,-,-,-
Cc1nccn1CCCN1CCC(c2nccn2CC2CCC2)CC1,-5.825%,11.96%,-2.907%,-2.449%,12.06%
CN(C)CCOCc1cncc2c1CCN(C1CCOC1)C2.O=C(O)C(F)(F)F.O=C(O)C(F)(F)F.O=C(O)C(F)(F)F (centres unmarked),-,-9.188%,-,-,-
O=C(O)C1c2nc[nH]c2CCN1CC(c1ccccc1)c1ccccc1 (centres unmarked),2.927%,7.589%,-12.25%,-29.42%,22.55%
COc1cc(F)c(NCc2nc3ccccc3n2C)cc1OC,2.886%,-31.23%,2.059%,-30.07%,10.45%
Cc1ccc(N2CCO[C@@H]3CN(Cc4cccc(C)n4)CC[C@@H]3C2)nn1,0.611%,-,-27.11%,2.131%,0%
COc1ccccc1CC(C)N(C)CCS(C)(=O)=O (centres unmarked),0.7937%,-63.27%,-16.32%,-6.11%,0%
Cn1cc(CN2CCCC3(COCCN(Cc4c[nH]nn4)C3)C2)cn1.O=C(O)C(F)(F)F.O=C(O)C(F)(F)F (centres unmarked),-,3.175%,-,-,-
COCCNS(=O)(=O)c1ccc(CNc2ncccc2C#N)cc1,-,-11.3%,-28.07%,7.351%,0%
COc1ccc(OCC(=O)NC(C)c2ccc(F)cc2)c(C(=O)O)c1 (centres unmarked),-2.643%,17.92%,-13.46%,5.762%,0%
CN(CCCc1ccccc1)C(=O)CCc1nc(-c2nnc[nH]2)no1,-0.4032%,-4.937%,-33.53%,-12.09%,7.263%

For reference, 4 entries once more:

| compound | CoaBC | Leishmania in macrophages | Pks13 thioesterase | ClpP1P2 | TcHisRS |
|---|---|---|---|---|---|
| `Cc1cc(N2CCCN(C(=O)Cc3csc(C)n3)CC2)ccn1` | -3.625% | 15.17% | -11.4% | -9.763% | 6.667% |
| `COc1cc(F)c(NCc2nc3ccccc3n2C)cc1OC` | 2.886% | -31.23% | 2.059% | -30.07% | 10.45% |
| `CCC(C)(NCC(=O)OC)c1nccs1` (centres unmarked) | 4.989% | -8.752% | -5.315% | 0.02136% | 2.128% |
| `CNC(=O)c1ccc2c(c1)C1(CCN(CC(C)C)CC1)C(=O)N2` | -3.084% | - | -17.95% | 4.627% | 4.237% |